Measurements reported in article PMC10617112.
These are yes or no findings as the source states them, for the method shown. Binding calls can cover weak binding; strength is not graded here. Sequences can lack the tags named with a protein. For some of these results: In cells and extracts the contact can be indirect. Values belong to the binder of their own block, whether it stands above or below them.

Assays:
[1] = target: BD-VdCmr1 (Verticillium dahliae); assay: two-hybrid; one-to-one Y2H in yeast Y2Hgold; prey in pGADT7, bait in pGBKT7; growth and blue colour on QDO (SD lacking Leu, Trp, His, Ade) with 3AT, 0.1 ug/mL AbA and 20 ug/mL X-a-Gal, 5 days
[2] = target: VdCmr1-YFP^N (Verticillium dahliae); assay: split reporter; BiFC with YFP^N (pHZ65) and YFP^C (pHZ68) fusions co-transformed into protoplasts of V. dahliae WT strain AT13; YFP signal by fluorescence microscopy, cell wall stained with CFW

binding [1]: binds
B1: AD-VdZFP1 (protein, UniProt G2XER1 1-585)
chain: MTYHIFHLDRRLTQGPFYPEHQDYGQNQASHTEDALNFDMPPPIDPNLEQGLTAHLGTVSWPGVHTHQLKQYMVGPSTSLFALGQFQANYAYSQHDVNPLPPVSQGRHGSPFSQHHSSSCSDSLSPPTEIDVLPSTPPDMSATSPFSQAIKFQPSWDAQQSRLYTLRGIVPTQENPYVSLLEVNPSQDIFENEKAPEYDGSMALSFSSAGSQSEMEVQVKDEIFVAHSHSQPTYPDPDYEERDQSELEAEEMIMKHEDEDKEWTPHPSRKRTRSDANKAQYVATRPARKRSKVHALPRAVPSKSSHEAPHSTKHVLSCEACAQGPFRDEAALQKHMKGKHIRPFVCIFNFAGCSSSFPSKNEWKRHVVTQHLALSFWHCKQDACESCTNPASASQQGSPATDTPSPLPRGAIFNRKDLYTQHVRRMHVPPPIAKALRLRKPTPEWDDRLREMQTEAERRRCELPTHMQCPASGCDMVFSGANAWDERMEHVAKHLEKASEGREPMLSFGGDGDPTLTNWAASPGVGVVRKTDTGEWELMHPLRGQPASAGGIAKRGAKGHSSSSPQAARYEEESAEDVDADGEED

binding [2]: binds
B2: VdZFP1-YFP^C (protein, UniProt G2XER1 1-585)
chain: B1 chain

binding [1]: binds
B3: AD-VdZFP2 (protein, UniProt G2XEQ9 1-886)
chain: MSKASGSYATHDRDSLPSFIGAQPRDLFPSPSQLGPPYRLTRVVGMDSSRPQPFHLPGQDVLTDVNLTPGGGDAPLRGIPKPWNILKFYDATADDSPWVPLGIIVPDHRAGQGQHQNSPTALRDAFAPRYSEWRSPGPSECDTLPPGQLPSDSGYESRRTKQSIANASVFGDVDRGHETQSLTGRMDGFDPFAGMSSTPSYTGNSANNHAYMTETCGLSTLRTRGTAHSTVIICPDCGSHLKTKSELNKHKQRHSKPHKCDVSGCSREEGFSTINDLDRHKRSVHRDTDTGGPRYRCHLAPCHNKKKIWPRADNFRSHLRRLHGVRAVDDDLAQYLIPSQQQDVGSLTEGMDASDSTIESFRFTPYDQEMPPSMWANHQSQDLEMTHLVVDSTGPRTELDISVASPASHGFSGLGEPNTGHAVRELPLGIMQGGNPQQRGMNCRKHLNLTQCGMDSNSNTSDATTPPETTLAPHPLMGGNLRNPSMEIEQNPTADRSDQVNPSDTSASEADADSSSEDLHEQENLMRRNDHSEVSHDPKAISAGSLVEVIKTPPFLSQGIDTGGAHNISPTSTQDITMTDQQINEFLQAVPEALLEKFLRERHNPFRIEPIKARTTVQANAQHPCPGCHKSFQRRCDLKKHIKRHDKPYGCTFLNCDKSFGSKNDWKRHETSQHTQLEVWKCNERASKGVGTICGKVFPRREDFKVHLQGTHNFRDVSALEAELHSCRIGRDCGLRYWCGFCEKIMEISHPAMQPSTKRFDHIDDHFCGRNTDKRSISDWKHLETELSASGSTPSSDKMETPKSSPEHQATARVSPSKNGRLVSDSTLPGKRKLDDDSECPESRRPRGRLATMWTCCNCTMQSSFRFNRACVSCSHSRCVDCPVET

binding [2]: binds
B4: VdZFP2-YFP^C (protein, UniProt G2XEQ9 1-886)
chain: B3 chain
